Two molecules from patent publication US20210269532A1 can be followed below.

These are yes or no findings as the source states them, for the method shown. Binding calls can cover weak binding; strength is not graded here.

The test concerns the target His-tagged cynomolgus AXL extracellular domain (recombinant) (cynomolgus). As to the kind of experiment: SPR. On the technique in general: Surface plasmon resonance follows binding to a sensor surface in real time, without labels.

B1: 22995 (antibody, human IgG1, kappa, L234A L235A, V domains shown)
VH: EVQLVESGGSLVQPGGSLRLSCAASGFTFSSSAMSWVRQAPGKGLEWVSTISGSDSSTYDADSVKGRSTISRDNSKNTLYLQMNSLRADDTAVYYCAKKGAYCSGTICYDPFDYWGQGTLVTVSS
VL: DIVLTQSPVLAVSLGQRATISCRASQSVSISSINLMHWYQQKPGQQPKLLIYRASNLASGIPARFSGSGSGTDFTLTIDPVQADDIAAYYCQQSRESPLTFGGGTKVEIKR
With B1, the binding result is listed as “binds”.

B2: 22883 (antibody, human IgG1, kappa, L234A L235A, V domains shown)
VH: EVQLVESGGGLVQPGGSLRLSCAASGFTFSSYAMSWVRQAPGKGLEWVSAISGGGDYTYYADSVKGRFTISRDNSKNTLYLQMNSLRAEDTAVYYCAKEEWELRGPFRYWGQGTLVTVSS
VL: DIQMTQSPSTLSASVGDRVTITCRASQSISSWLAWYQQKPGKAPKFLIYKASSLESGVPSRFSGSGSGTEFTLTISSLQPDDFATYYCQQYNGFSWTFGQGTKVEIKR
Take B2: the binding result is “binds”.
